Assay results reported in article doi:10.1101/798884.
These are yes or no findings as the source states them, for the method shown. Binding seen in cells or lysates may run through a third protein. Some binding calls cover weakened binding; strength is not graded here.

Amino acid sequences for entries named in this document (tags omitted).
UniProt P35637, whole entry: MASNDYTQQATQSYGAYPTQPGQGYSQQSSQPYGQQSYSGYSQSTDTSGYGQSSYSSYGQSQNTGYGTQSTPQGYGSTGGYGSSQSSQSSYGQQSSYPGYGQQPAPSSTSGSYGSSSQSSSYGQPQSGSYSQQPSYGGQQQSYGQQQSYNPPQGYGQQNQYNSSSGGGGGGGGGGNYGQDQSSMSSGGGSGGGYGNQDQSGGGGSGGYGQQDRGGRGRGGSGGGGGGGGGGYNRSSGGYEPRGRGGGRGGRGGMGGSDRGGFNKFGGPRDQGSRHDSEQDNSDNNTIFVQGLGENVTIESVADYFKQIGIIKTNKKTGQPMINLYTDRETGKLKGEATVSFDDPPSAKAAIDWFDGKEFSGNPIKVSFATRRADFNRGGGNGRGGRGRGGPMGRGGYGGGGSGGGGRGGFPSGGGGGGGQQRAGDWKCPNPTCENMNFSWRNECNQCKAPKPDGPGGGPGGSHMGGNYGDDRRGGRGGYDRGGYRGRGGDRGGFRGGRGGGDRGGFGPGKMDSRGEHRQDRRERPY
UniProt P22626, whole entry: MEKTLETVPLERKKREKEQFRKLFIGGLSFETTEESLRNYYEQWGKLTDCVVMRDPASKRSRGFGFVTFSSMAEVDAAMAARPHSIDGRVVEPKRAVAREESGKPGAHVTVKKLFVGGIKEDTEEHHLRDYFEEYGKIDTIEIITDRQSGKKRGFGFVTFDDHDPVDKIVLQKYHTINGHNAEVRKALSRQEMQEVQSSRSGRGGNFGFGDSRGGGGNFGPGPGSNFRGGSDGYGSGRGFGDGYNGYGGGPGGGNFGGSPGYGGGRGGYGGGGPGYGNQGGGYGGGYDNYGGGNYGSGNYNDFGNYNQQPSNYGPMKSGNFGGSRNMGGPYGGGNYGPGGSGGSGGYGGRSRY
UniProt Q12905, whole entry: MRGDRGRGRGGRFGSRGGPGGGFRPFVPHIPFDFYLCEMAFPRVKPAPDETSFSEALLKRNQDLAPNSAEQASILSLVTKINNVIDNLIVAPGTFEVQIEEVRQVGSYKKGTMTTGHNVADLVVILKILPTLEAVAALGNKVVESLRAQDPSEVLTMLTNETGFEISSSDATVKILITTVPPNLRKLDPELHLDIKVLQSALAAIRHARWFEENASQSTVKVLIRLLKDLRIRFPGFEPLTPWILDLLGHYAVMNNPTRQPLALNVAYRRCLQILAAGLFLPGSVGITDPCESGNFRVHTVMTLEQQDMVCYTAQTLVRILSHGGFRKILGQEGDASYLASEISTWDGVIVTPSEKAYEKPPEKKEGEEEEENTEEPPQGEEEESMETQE
UniProt P13010, whole entry: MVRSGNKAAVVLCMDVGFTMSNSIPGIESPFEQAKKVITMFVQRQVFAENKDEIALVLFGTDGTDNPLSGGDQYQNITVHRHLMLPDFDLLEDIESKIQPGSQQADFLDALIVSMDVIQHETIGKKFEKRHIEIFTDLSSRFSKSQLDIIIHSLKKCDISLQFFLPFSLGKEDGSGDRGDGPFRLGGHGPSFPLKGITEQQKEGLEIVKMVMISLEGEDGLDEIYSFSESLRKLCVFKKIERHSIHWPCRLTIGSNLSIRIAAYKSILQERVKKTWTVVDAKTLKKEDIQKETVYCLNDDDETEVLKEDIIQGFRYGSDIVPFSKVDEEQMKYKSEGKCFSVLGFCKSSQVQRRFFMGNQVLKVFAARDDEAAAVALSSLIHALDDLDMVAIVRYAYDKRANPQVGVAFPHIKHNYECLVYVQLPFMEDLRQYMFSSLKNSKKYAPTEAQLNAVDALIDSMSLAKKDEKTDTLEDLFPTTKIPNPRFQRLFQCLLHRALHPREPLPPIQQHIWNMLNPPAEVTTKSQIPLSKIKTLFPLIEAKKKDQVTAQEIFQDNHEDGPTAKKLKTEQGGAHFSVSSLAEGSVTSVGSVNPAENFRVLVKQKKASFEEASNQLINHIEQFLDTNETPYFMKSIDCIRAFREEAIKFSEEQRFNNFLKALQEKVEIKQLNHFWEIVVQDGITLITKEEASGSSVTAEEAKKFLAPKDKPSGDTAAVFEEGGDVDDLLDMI

B1: MATR3 (protein, UniProt P43243 1-847)
chain: MSKSFQQSSLSRDSQGHGRDLSAAGIGLLAAATQSLSMPASLGRMNQGTARLASLMNLGMSSSLNQQGAHSALSSASTSSHNLQSIFNIGSRGPLPLSSQHRGDADQASNILASFGLSARDLDELSRYPEDKITPENLPQILLQLKRRRTEEGPTLSYGRDGRSATREPPYRVPRDDWEEKRHFRRDSFDDRGPSLNPVLDYDHGSRSQESGYYDRMDYEDDRLRDGERCRDDSFFGETSHNYHKFDSEYERMGRGPGPLQERSLFEKKRGAPPSSNIEDFHGLLPKGYPHLCSICDLPVHSNKEWSQHINGASHSRRCQLLLEIYPEWNPDNDTGHTMGDPFMLQQSTNPAPGILGPPPPSFHLGGPAVGPRGNLGAGNGNLQGPRHMQKGRVETSRVVHIMDFQRGKNLRYQLLQLVEPFGVISNHLILNKINEAFIEMATTEDAQAAVDYYTTTPALVFGKPVRVHLSQKYKRIKKPEGKPDQKFDQKQELGRVIHLSNLPHSGYSDSAVLKLAEPYGKIKNYILMRMKSQAFIEMETREDAMAMVDHCLKKALWFQGRCVKVDLSEKYKKLVLRIPNRGIDLLKKDKSRKRSYSPDGKESPSDKKSKTDGSQKTESSTEGKEQEEKSGEDGEKDTKDDQTEQEPNMLLESEDELLVDEEEAAALLESGSSVGDETDLANLGDVASDGKKEPSDKAVKKDGSASAAAKKKLKKVDKIEELDQENEAALENGIKNEENTEPGAESSENADDPNKDTSENADGQSDENKDDYTIPDEYRIGPYQPNVPVGIDYVIPKTGFYCKLCSLFYTNEEVAKNTHCSSLPHYQKLKKFLNKLAEERRQKKET
B2: SFPQ/NONO heterodimer (complex, UniProt P23246 1-707; Q15233 1-471)
chain 1: MSRDRFRSRGGGGGGFHRRGGGGGRGGLHDFRSPPPGMGLNQNRGPMGPGPGQSGPKPPIPPPPPHQQQQQPPPQQPPPQQPPPHQPPPHPQPHQQQQPPPPPQDSSKPVVAQGPGPAPGVGSAPPASSSAPPATPPTSGAPPGSGPGPTPTPPPAVTSAPPGAPPPTPPSSGVPTTPPQAGGPPPPPAAVPGPGPGPKQGPGPGGPKGGKMPGGPKPGGGPGLSTPGGHPKPPHRGGGEPRGGRQHHPPYHQQHHQGPPPGGPGGRSEEKISDSEGFKANLSLLRRPGEKTYTQRCRLFVGNLPADITEDEFKRLFAKYGEPGEVFINKGKGFGFIKLESRALAEIAKAELDDTPMRGRQLRVRFATHAAALSVRNLSPYVSNELLEEAFSQFGPIERAVVIVDDRGRSTGKGIVEFASKPAARKAFERCSEGVFLLTTTPRPVIVEPLEQLDDEDGLPEKLAQKNPMYQKERETPPRFAQHGTFEYEYSQRWKSLDEMEKQQREQVEKNMKDAKDKLESEMEDAYHEHQANLLRQDLMRRQEELRRMEELHNQEMQKRKEMQLRQEEERRRREEEMMIRQREMEEQMRRQREESYSRMGYMDPRERDMRMGGGGAMNMGDPYGSGGQKFPPLGGGGGIGYEANPGVPPATMSGSMMGSDMRTERFGQGGAGPVGGQGPRGMGPGTPAGYGRGREEYEGPNKKPRF
chain 2: MQSNKTFNLEKQNHTPRKHHQHHHQQQHHQQQQQQPPPPPIPANGQQASSQNEGLTIDLKNFRKPGEKTFTQRSRLFVGNLPPDITEEEMRKLFEKYGKAGEVFIHKDKGFGFIRLETRTLAEIAKVELDNMPLRGKQLRVRFACHSASLTVRNLPQYVSNELLEEAFSVFGQVERAVVIVDDRGRPSGKGIVEFSGKPAARKALDRCSEGSFLLTTFPRPVTVEPMDQLDDEEGLPEKLVIKNQQFHKEREQPPRFAQPGSFEYEYAMRWKALIEMEKQQQDQVDRNIKEAREKLEMEMEAARHEHQVMLMRQDLMRRQEELRRMEELHNQEVQKRKQLELRQEEERRRREEEMRRQQEEMMRRQQEGFKGTFPDAREQEIRMGQMAMGGAMGINNRGAMPPAPVPAGTPAPPGPATMMPDGTLGLTPPTTERFGQAATMEGIGAIGGTPPAFNRAAPGAEFAPNKRRRY

Columns and labels:
[1] = biological target: Flag-tagged FUS (Fused-in-sarcoma) (UniProt P35637); assay: co-IP + SEC
[2] = biological target: FUS (Fused-in-sarcoma), endogenous (UniProt P35637); assay: co-IP

| Molecule | binding [1] | binding [2] |
| --- | --- | --- |
| hnRNP B1 (large isoform of hnRNP A2/B1, 37.4 kDa) (from UniProt P22626-1 1-353) | binds |  |
| ILF2 (from UniProt Q12905 1-390) | binds |  |
| XRCC5/KU80 (from UniProt P13010 1-732) | binds |  |
| hnRNP A2 (smaller isoform of hnRNP A2/B1, 36 kDa) (from UniProt P22626-2 1-341) | binds | binds |
| B1 | binds |  |
| B2 | binds |  |
